Assay results published in patent US20020164595.

How the values were obtained:
[1] = biological target: p53 wild-type (Homo sapiens) (UniProt P04637); assay: pull-down
[2] = biological target: p53 wild-type (Homo sapiens) (UniProt P04637); assay: activity in cells; details: protein in cells, only the site is given
[3] = protein in a lysate after overexpression, protein details: vaccinia-expressed lysate (HeLa or BSC40), label: 32P, variant of fragment A (772 CBE, subclone 10d)

## AGTGAAAGCAGGTAGATTGCCTTGCCTGGACTTGCCTGGCCTTGCCTTTTCTTTC (double strand) [fragment A subfragment 5]
[1]; [3]
  binding result: binds

## CCTTGCCTGGACTTGCCTGGCCTTGCCTTTTCT (double strand) [fragment A subfragment 6]
[1]; 33 bp insert with three TGCCT repeats suffices, protein in a lysate after overexpression, protein details: vaccinia-expressed lysate (HeLa or BSC40), label: …, variant of fragment A (772 CBE, subclone 10d)
  binding result: binds

## AATACGACTCACTATAGGGCGAATTGGGTACCGGGCCCCCCCTCGAGGTCGACGGTATCGATAAGCTTGATATTCTCCCCAGATGTAGTGAAAGCAGGTAGATTGCCTTGCCTGGACTTGCCTGGCCTTGCCTTTTCTTTC (double strand) [fragment A subfragment 4]
[1]; [3]
  binding result: binds

## CCTTAATGGACTTTAATGG (double strand) [MG concatemer (MG15; repeat unit listed)]
[2]; MG15-CAT in HCT 116, Exp. 2, variant of PG concatemer (PGn, repeat unit listed)
  activity on this sequence (relative CAT activity): < 1
[1]; MG15, protein translated in vitro, protein details: rabbit reticulocyte lysate, variant of PG concatemer (PGn, repeat unit listed)
  binding result: no binding

## CCTGCCTGGACTTGCCTGG (double strand) [PG concatemer (PGn; repeat unit listed)]
[2]; PG13-CAT in HCT 116, Exp. 1
  activity on this sequence (relative CAT activity): 100
[1]; PG16, co-translated R175H at 3:1 inhibits binding by over 90%, protein translated in vitro, protein details: rabbit reticulocyte lysate
  binding result: binds
[1]; binding increases with repeat number, purified recombinant protein, protein details: baculovirus-produced, affinity-purified
  binding result: binds

## AATACGACTCACTATAGGGCGAATTGGGTACCGGGCCCCCCCTCGAGGTCGACGGTATCGATAAGCTTGATATTCTCCCCAGATGTAGTGAAAGCAGGTAGATTGCCTTGCCTGGACTTGCCTGGCCTTGCCTTTTCTTTCTTTCTTTCTTTCTTTATTACTTTCTCTTTTTCTTCTTCTTCTTCTTCTTCTTCTTCTTCTTCTTCTTCTTCTTCTTCTTCTTCTTCTTCTTTTTTTTTTGAGACAGAGTTTCACTCTTGTTGCCCAGGCTAGAGGGCAATGGCGCGATCTCGGCTCACCGCACCCTCCGCCTCCCAGGTTCAAGCGATTGGGGGATCCACTAGTTCTAGAGCGGCCGCCACCGCGGTGGAGCTCCAGCTTTTGTTCCCTTTAGTGAGGGTTAAT (double strand) [fragment A (772 CBE, subclone 10d)]
[1]; immunoprecipitation, 100 mM NaCl, 5 mM EDTA, 4 C, protein in a lysate after overexpression, protein details: vaccinia-expressed lysate (HeLa or BSC40), label: 32P
  binding result: binds
[1]; immunoprecipitation, 4 C, poly dI-dC, purified recombinant protein, protein details: baculovirus-produced, affinity-purified, label: 32P
  binding result: binds

## TGCTCTCTTGCTTGCTACCATGTAAGACATGCCTGTGCTCCTCTTTTGCCTTCTGCCATGATTGTGAGACCTCCCCAGCCATGTGGAACTGTGAG (double strand) [fragment B subfragment 8]
[1]; protein in a lysate after overexpression, protein details: vaccinia-expressed lysate (HeLa or BSC40), label: 32P, variant of fragment B (Lambda 5R, subclone 8a)
  binding result: binds

## CCTTGCCTGGACTTGCCTGGCCTTGCCTTTTCTTTCTTTCTTTCTTTCTTTATTACTTTCTCTTTTTCTTCTTCTTCTTCTTCTTCTTCTTCTTCTTCTTCTTCTTCTTCTTCTTCTTCTTCTTCTTTTTTTTTTGAGACAGAGTTTCACTCTTGTTGCCCAGGCTAGAGGGCAATGGCGCGATCTCGG (double strand) [fragment A subfragment 3]
[1]; [3]
  binding result: binds

## CCTTGCCTTTTCTTTCTTTCTTTCTTTCTTTATTACTTTCTCTTTTTCTTCTTCTTCTTCTTCTTCTTCTTCTTCTTCTTCTTCTTCTTCTTCTTCTTCTTCTTCTTTTTTTTTTGAGACAGAGTTTCACTCTTGTTGCCCAGGCTAGAGGGCAATGGCGCGATCTCGG (double strand) [subfragment 3a (HaeIII-digested subfragment 3)]
[1]; binding greatly reduced, protein in a lysate after overexpression, protein details: vaccinia-expressed lysate (HeLa or BSC40), label: 32P, variant of fragment A subfragment 3
  binding result: binds more weakly

For some of these results: Where cells or extracts were used, other partners may take part. For some of these results: The comparison behind a weaker result is the experiment's own reference, which may not be listed here. For at least one entry, the source does not settle the construct or the ends of the probe. For some of these results: Negatives hold for the conditions tested.
